Laboratory results: PubChem BioAssay AID1259254 (NCATS, 2017)
The deposit covers about 59,000 reagents; this is a random part of them. Over the whole deposit, about 1,550 (2.6%) are marked active. 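G2 share is only a proxy for re-replication; each gene was hit by three separate siRNAs, and active genes were retested.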 Unmarked entries are inactive. Reagents against one gene are numbered here. Further read-outs or replicates are left out here. Not given: the amount of reagent.

Purpose: 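Gene knock-downs that lead to re-replication, shown by excess G2 DNA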 (primary screen)
System: human HCT116 colorectal cancer cells
Reagent: single siRNA against human genes
Timing: 3 days
Read-out: 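Nuclei stained with Hoechst and imaged; cell-cycle phase assigned by DNA content; G2 share scaled per plate, non-targeting siRNA 0%, GMNN siRNA 100%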
Scale: G2 robust z-score: higher = more G2 cells, more excess DNA replication
Hit rule: 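An siRNA counts as active if its G2 robust z-score lies at least 5 MADs above the screen median; here such calls match roughly 38% of GMNN control or more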

G2 robust z-score, by gene and reagent
WBP1L: #1 -0.915; #2 -0.609; #3 1.66
KEAP1: #1 -0.744; #2 -1.01; #3 -0.799
NEUROG2: #1 0.39; #2 1.65; #3 -0.601
STRIP1: #1 0.329; #2 4.72; #3 1.48
HSFX1: #1 0.546; #2 1.84; #3 1.08
SHPRH: #1 0.891; #2 1.3; #3 0.961
CSF1R: #1 -1.25; #2 0.251; #3 -0.377
ATG4A: #1 -1.07; #2 -0.729; #3 -0.629
VN2R17P: #1 -0.444; #2 -0.691; #3 1.58
FIG4: #1 2.86; #2 2.7; #3 0.0451
GKN1: #1 1.55; #2 0.585; #3 -0.765
TMEM267: #1 0.347; #2 -0.58; #3 -0.779
SRSF5: #1 2.01; #2 -0.305; #3 0.102
COA7: #1 -0.185; #2 0.0196; #3 2.7
PSMA2: #1 4; #2 4.26; #3 0.836
ZFTA: #1 0.272; #2 -0.78; #3 1.81
